# Reference: patent US20230257415A1, “COMPOUNDS FOR TREATING CNS DISORDERS” (SAGE THERAPEUTICS, INC., priority 2019, published 2023)
# At least one structure is not confirmed: it was looked up by name or label, or the drawing left a doubt.
# Molecular target: GABAA receptor
# Test: [35S]-TBPS binding assay, rat brain cortical membranes, in the presence of GABA
# Details: inhibition of 3 nM [35S]-TBPS binding, 5 mM GABA, 90 min, room temp
# Procedure: [35S]-t-Butylbicyclophosphorothionate (TBPS) binding assays using rat brain cortical membranes in the presence of 5 mM GABA has been described (Gee et al, J. Pharmacol. Exp. Ther. 1987, 241, 346-353; Hawkinson et al, Mol. Pharmacol. 1994, 46, 977-985; Lewin, A.H et al., Mol. Pharmacol. 1989, 35, 189-194).
# Briefly, cortices are rapidly removed following decapitation of carbon dioxide-anesthetized Sprague-Dawley rats (200-250 g). The cortices are homogenized in 10 volumes of ice-cold 0.32 M sucrose using a glass/teflon homogenizer and centrifuged at 1500 x g for 10 min at 4° C. The resultant supernatants are centrifuged at 10,000 x g for 20 min at 4° C. to obtain the P2 pellets. The P2 pellets are resuspended in 200 mM NaCl/50 mM Na-K phosphate pH 7.4 buffer and centrifuged at 10,000 x g for 10 min at 4° C. This washing procedure is repeated twice and the pellets are resuspended in 10 volumes of buffer. Aliquots ([…]) of the membrane suspensions are incubated with 3 nM [^35S]-TBPS and […] aliquots of test drug dissolved in dimethyl sulfoxide (DMSO) (final 0.5%) in the presence of 5 mM GABA. The incubation is brought to a final volume of 1.0 mL with buffer. […] Filter bound radioactivity is measured by liquid scintillation spectrometry. […]
row,SMILES,IC50 [nM]
1,"CC[C@]12CC[C@H]3[C@@H](CC[C@@H]4C[C@](C)(O)CC[C@@H]43)[C@@H]1CCC[C@@H]2CNC(=O)c1ccc(C#N)cc1 [Example 40, 4-cyano-N-(((1S,4aS,4bR,6aR,8R,10aS,10bR,12aS)-12a-ethyl-8-hydroxy-8-methyloctadecahydrochrysen-1-yl)methyl)benzamide]",100 to 1000
2,"C[C@@H](Cn1cc(C#N)cn1)[C@H]1CC[C@H]2[C@@H]3CC[C@@H]4C[C@](C)(O)CCC[C@@H]4[C@H]3CC[C@]12C [Example 21, 1-((R)-2-((1R,3aS,3bR,5aR,7R,10aS,10bR,12aS)-7-hydroxy-7,12a-dimethyloctadecahydrocyclohepta[a]cyclopenta[f]naphthalen-1-yl)propyl)-1H-pyrazole-4-carbonitrile]",< 100
